Publication PMC6883062
Results are given in words; binding and its absence hold for the method and conditions named. In cells and extracts the contact can be indirect. Some binding calls cover weakened binding; strength is not graded here.

Amino acid sequences for entries named in this document (tags omitted).
UniProt O35800: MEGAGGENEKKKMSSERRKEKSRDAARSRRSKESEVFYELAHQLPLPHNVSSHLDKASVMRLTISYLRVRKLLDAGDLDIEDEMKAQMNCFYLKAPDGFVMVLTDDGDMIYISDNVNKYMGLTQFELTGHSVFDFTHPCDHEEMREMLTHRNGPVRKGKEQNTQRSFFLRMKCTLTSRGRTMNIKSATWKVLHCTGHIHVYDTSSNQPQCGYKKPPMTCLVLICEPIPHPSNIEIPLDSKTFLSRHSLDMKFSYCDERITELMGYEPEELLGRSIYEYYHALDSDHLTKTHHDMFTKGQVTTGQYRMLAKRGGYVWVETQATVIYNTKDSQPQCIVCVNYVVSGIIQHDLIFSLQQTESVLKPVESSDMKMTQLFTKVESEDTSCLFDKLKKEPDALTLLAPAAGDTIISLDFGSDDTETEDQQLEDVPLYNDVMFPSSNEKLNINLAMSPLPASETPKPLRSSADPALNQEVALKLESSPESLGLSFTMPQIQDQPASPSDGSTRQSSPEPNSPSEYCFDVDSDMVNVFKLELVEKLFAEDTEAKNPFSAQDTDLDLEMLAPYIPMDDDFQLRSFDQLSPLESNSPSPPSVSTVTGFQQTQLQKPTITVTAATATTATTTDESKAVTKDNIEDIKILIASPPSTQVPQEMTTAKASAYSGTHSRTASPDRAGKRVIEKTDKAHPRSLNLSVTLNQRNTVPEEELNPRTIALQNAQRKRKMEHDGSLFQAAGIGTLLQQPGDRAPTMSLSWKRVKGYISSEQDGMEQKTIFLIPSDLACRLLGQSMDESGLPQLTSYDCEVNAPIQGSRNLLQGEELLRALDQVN

Target: T1, β-catenin (rat (endogenous in NRCM)) (UniProt Q9WU82)
T1 sequence: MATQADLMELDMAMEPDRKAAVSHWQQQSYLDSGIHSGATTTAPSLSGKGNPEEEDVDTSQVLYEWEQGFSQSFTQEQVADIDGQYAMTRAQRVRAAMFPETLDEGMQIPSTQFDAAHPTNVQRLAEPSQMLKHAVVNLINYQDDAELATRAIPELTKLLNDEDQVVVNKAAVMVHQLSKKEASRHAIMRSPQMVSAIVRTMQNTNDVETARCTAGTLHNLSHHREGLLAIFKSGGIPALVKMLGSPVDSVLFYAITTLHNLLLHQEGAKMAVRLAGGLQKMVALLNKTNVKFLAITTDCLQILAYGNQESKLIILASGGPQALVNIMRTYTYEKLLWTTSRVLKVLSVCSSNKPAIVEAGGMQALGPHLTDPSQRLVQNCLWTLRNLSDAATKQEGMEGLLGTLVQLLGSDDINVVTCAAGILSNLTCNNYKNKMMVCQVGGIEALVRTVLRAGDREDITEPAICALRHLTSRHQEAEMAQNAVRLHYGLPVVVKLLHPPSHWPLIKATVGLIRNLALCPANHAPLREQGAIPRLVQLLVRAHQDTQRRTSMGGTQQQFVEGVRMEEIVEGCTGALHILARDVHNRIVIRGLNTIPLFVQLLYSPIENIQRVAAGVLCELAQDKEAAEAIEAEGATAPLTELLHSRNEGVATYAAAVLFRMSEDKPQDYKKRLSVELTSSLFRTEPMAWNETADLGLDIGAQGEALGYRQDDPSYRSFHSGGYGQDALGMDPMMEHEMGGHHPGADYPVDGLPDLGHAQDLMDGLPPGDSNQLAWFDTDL
Experiment: co-IP; cultured cells under hypoxia lysed in IP lysis buffer with 1% PMSF; antibodies and Protein A/G agarose beads overnight at 4 °C; five washes; western blot; forward and reverse co-IPs

Hif-1α (from UniProt O35800 1-825) was tested, and the binding was “binds”.
